PubChem BioAssay AID504774, Drosophila RNAi Screening Center | 2011
The deposit covers about 23,000 reagents; below is an unselected part of those with a known target gene and a result. 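Values are quantile-normalised luminescence on an arbitrary scale; higher means more cells surviving MMS.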 Names joined by + are all predicted targets of the reagent. Not all columns of the deposit are shown.

Assay: 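Genes required for cells to withstand methyl methanesulphonate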 (primary screen)
Cells: Drosophila Kc167 cells
Reagent: long dsRNA against Drosophila genes, about 0.25 µg dsRNA per well
Duration: about 6 days: 3 days knock-down, then 3 days with or without MMS
Conditions: methyl methanesulphonate 0.004% (w/v) for 3 days after knock-down
Measured: 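Viability in wells given MMS, read as ATP luminescence, normalised by quantiles plate by plate and averaged across replicates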
Reading the numbers: mean viability with MMS: higher = more surviving cells after MMS

AANATL6 [DRSC06773]
- mean viability with MMS: 3.65e6

CG13991 [DRSC02323]
- mean viability with MMS: 3.57e6

CG14561 [DRSC11722]
- mean viability with MMS: 3.55e6

Gdap2 [DRSC06789]
- mean viability with MMS: 3.58e6

Gdap2 [DRSC06790]
- mean viability with MMS: 3.54e6

CG7025 [DRSC03002]
- mean viability with MMS: 3.45e6

CG4025 [DRSC18523]
- mean viability with MMS: 3.58e6

GstE5 [DRSC06675]
- mean viability with MMS: 3.64e6

CG8245 [DRSC04901]
- mean viability with MMS: 3.71e6

tyn [DRSC20652]
- mean viability with MMS: 3.60e6

Rsbp15 [DRSC14176]
- mean viability with MMS: 3.43e6

RalGPS [DRSC06941]
- mean viability with MMS: 3.46e6

CG8563 [DRSC10996]
- mean viability with MMS: 3.61e6

CG17549 [DRSC02625]
- mean viability with MMS: 3.58e6

Jhbp14 [DRSC01988]
- mean viability with MMS: 3.54e6

Gr36b [DRSC21637]
- mean viability with MMS: 3.64e6

MICAL-like [DRSC09829]
- mean viability with MMS: 3.54e6

CG12491 + CG34105 [DRSC04008]
- mean viability with MMS: 3.62e6

CG12491 + CG34105 [DRSC04124]
- mean viability with MMS: 3.45e6

eIF3i [DRSC03464]
- mean viability with MMS: 2.57e6

CG4210 [DRSC15551]
- mean viability with MMS: 3.70e6

Fa2h [DRSC06608]
- mean viability with MMS: 3.52e6

Fa2h [DRSC06609]
- mean viability with MMS: 3.50e6

ND-24 [DRSC19960]
- mean viability with MMS: 3.81e6

TBC1d7 + mRpS24 [DRSC14611]
- mean viability with MMS: 3.78e6

CG17187 [DRSC15181]
- mean viability with MMS: 3.59e6

CG3764 [DRSC10375]
- mean viability with MMS: 3.55e6

CG9676 [DRSC20204]
- mean viability with MMS: 3.53e6

ECSIT [DRSC12348]
- mean viability with MMS: 3.58e6

p53 [DRSC17024]
- mean viability with MMS: 3.55e6

Grl65a [DRSC08837]
- mean viability with MMS: 3.69e6

Gen [DRSC09679]
- mean viability with MMS: 3.61e6

NaPi-T [DRSC07476]
- mean viability with MMS: 3.66e6

row [DRSC07076]
- mean viability with MMS: 3.18e6

row [DRSC07077]
- mean viability with MMS: 3.48e6

CG5188 [DRSC02826]
- mean viability with MMS: 3.51e6

Nlg1 [DRSC12485]
- mean viability with MMS: 3.51e6

Nlg1 [DRSC12532]
- mean viability with MMS: 3.63e6

Nlg1 [DRSC12533]
- mean viability with MMS: 3.69e6

Nlg1 [DRSC12539]
- mean viability with MMS: 3.64e6

CG9674 [DRSC11088]
- mean viability with MMS: 3.73e6

CG9674 [DRSC11089]
- mean viability with MMS: 3.57e6

RpS11 [DRSC07289]
- mean viability with MMS: 3.47e6

RpS11 [DRSC22700]
- mean viability with MMS: 2.84e6

Eglp2 [DRSC04294]
- mean viability with MMS: 3.62e6

Not a retest: 2 of the entries above.
ND-24 [DRSC19960]
- mean viability with MMS: 3.81e6

TBC1d7 + mRpS24 [DRSC14611]
- mean viability with MMS: 3.78e6
